The other results are listed elsewhere or left out.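 Rule for the calls: active = dose-dependent thermal stabilisation significant by F-test of dose-response against flat model at 10% FDR; inactive = not significant.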
compound: Nc1nc2c(ncn2[C@@H]2O[C@H](COP(=O)(O)OP(=O)(O)OP(=O)(O)O)[C@@H](O)[C@H]2O)c(=O)[nH]1; assay: dose-dependent thermal stabilisation call (2D-TPP, DLPTP, 10% FDR) (binary (1 = stabilised)); higher = stabilised by the compound; settings: system: Jurkat gel-filtered lysate; concentration range 1-500 µM

Sequences of proteins named here, by UniProt entry; tags and fusion partners are left off. A change or cut given only in a name is not applied to a line headed by its entry.
UniProt Q9NXR1: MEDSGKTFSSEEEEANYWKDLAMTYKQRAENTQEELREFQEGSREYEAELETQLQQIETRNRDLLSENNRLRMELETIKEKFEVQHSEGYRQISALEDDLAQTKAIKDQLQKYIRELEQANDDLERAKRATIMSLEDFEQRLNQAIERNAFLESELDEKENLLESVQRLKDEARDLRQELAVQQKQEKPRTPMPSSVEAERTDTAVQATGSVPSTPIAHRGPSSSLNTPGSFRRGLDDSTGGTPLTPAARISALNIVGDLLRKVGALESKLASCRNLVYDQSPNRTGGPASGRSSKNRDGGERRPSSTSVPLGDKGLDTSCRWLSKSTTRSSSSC
UniProt Q6DKJ4: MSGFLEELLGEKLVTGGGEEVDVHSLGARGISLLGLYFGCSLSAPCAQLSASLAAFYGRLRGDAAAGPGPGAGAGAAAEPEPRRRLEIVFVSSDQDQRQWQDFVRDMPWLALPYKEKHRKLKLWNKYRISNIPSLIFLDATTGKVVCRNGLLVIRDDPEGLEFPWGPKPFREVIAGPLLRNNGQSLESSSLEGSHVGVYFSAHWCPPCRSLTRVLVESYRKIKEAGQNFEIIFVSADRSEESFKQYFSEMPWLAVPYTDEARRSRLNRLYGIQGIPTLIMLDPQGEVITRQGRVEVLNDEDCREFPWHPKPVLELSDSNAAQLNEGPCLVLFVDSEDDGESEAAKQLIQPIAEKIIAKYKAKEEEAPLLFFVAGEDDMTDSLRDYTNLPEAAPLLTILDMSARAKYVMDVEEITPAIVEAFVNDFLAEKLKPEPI
UniProt Q6N069: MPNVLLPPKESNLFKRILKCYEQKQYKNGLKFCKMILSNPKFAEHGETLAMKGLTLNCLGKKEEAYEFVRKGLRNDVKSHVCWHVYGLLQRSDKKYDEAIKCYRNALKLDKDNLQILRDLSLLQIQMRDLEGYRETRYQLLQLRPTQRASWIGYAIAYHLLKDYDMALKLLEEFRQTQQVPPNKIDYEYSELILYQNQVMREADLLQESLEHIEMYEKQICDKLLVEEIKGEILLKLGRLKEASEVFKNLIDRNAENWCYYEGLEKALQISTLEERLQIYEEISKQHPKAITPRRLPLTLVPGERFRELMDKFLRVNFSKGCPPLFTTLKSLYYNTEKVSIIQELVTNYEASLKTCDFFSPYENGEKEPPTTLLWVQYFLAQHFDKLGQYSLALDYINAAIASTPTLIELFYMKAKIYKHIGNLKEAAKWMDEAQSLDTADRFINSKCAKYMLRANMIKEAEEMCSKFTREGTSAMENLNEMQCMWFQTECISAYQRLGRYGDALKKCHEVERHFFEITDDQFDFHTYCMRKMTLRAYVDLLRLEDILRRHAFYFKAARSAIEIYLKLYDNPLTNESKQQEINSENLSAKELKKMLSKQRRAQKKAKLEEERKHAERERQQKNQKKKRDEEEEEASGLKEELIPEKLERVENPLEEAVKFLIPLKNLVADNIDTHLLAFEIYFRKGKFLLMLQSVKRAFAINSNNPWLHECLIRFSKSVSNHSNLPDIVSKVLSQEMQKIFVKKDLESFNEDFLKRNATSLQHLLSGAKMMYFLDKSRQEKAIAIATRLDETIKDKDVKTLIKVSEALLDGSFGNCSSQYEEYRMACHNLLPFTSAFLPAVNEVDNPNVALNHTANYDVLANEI
UniProt Q9BPW8: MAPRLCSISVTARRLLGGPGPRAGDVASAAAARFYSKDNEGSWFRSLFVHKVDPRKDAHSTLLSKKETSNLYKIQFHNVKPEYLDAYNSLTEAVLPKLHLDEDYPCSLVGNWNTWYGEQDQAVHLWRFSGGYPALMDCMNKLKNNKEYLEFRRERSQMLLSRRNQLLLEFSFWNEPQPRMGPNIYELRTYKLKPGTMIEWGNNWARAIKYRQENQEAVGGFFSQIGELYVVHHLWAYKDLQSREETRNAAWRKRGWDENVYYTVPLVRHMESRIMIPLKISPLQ
UniProt Q969T7: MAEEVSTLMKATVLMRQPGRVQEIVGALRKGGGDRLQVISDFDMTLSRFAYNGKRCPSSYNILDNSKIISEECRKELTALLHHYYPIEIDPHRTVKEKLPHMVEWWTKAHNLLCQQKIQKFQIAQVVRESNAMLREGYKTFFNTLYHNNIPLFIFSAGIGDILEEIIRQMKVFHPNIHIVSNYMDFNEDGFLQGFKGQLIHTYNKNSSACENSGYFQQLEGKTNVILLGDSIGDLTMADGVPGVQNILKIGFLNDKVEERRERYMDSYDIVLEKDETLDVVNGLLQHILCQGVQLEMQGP
UniProt Q15003, whole entry: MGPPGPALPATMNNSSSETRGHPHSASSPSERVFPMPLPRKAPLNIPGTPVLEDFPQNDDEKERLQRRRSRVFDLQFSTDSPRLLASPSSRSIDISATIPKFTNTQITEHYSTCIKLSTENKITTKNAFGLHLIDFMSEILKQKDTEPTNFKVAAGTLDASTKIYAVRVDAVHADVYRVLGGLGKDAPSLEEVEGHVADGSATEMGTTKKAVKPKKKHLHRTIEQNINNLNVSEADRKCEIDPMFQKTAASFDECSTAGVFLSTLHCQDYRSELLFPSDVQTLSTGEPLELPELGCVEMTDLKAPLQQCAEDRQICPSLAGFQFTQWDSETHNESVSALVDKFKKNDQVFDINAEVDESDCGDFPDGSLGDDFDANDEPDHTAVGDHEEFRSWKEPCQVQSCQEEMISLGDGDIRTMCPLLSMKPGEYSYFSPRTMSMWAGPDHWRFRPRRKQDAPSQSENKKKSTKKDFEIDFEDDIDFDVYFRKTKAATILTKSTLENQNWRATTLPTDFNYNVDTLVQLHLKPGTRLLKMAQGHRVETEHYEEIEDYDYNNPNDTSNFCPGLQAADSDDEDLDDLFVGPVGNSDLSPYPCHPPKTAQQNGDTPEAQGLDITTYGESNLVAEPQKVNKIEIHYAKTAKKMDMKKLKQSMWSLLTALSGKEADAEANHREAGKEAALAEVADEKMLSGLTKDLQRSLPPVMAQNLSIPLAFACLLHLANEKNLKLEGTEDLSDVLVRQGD
UniProt P07237: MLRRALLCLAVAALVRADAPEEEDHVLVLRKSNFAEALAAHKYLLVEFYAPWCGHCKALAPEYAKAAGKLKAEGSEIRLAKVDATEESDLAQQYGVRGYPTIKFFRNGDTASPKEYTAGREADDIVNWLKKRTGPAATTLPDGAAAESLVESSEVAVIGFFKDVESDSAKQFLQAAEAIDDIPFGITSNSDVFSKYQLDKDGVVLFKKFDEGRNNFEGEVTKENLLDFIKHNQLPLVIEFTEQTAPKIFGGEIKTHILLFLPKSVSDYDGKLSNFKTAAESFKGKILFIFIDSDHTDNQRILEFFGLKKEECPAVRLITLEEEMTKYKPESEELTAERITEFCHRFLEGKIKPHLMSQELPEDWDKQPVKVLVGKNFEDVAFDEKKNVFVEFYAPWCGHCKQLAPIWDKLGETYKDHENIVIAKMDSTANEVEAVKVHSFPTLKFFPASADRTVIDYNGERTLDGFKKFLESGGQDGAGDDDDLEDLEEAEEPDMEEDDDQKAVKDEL
UniProt Q14CX7, whole entry: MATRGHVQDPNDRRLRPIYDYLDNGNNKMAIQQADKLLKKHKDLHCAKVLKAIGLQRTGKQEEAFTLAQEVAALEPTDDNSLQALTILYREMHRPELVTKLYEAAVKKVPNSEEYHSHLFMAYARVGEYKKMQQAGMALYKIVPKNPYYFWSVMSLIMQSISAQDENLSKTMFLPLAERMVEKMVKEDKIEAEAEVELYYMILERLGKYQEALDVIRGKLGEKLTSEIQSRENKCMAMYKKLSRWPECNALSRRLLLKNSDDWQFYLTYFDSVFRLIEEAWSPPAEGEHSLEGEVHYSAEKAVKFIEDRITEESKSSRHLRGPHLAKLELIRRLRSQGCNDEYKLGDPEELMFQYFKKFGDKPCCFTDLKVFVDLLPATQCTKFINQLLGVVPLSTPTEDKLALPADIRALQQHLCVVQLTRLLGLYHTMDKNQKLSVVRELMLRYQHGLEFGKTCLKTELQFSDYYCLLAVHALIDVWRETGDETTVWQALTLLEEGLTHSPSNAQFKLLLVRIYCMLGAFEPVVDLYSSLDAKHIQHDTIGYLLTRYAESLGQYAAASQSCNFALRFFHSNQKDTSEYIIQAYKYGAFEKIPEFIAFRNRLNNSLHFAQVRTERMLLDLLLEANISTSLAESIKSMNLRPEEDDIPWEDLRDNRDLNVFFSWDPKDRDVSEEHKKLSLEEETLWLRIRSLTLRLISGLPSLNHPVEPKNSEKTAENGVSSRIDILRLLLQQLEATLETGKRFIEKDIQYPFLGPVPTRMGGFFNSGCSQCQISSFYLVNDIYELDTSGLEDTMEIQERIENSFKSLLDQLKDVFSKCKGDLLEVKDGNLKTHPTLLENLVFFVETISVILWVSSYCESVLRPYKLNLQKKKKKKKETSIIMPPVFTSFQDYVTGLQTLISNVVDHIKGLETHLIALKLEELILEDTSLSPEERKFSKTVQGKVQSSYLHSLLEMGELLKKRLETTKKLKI
UniProt O15294: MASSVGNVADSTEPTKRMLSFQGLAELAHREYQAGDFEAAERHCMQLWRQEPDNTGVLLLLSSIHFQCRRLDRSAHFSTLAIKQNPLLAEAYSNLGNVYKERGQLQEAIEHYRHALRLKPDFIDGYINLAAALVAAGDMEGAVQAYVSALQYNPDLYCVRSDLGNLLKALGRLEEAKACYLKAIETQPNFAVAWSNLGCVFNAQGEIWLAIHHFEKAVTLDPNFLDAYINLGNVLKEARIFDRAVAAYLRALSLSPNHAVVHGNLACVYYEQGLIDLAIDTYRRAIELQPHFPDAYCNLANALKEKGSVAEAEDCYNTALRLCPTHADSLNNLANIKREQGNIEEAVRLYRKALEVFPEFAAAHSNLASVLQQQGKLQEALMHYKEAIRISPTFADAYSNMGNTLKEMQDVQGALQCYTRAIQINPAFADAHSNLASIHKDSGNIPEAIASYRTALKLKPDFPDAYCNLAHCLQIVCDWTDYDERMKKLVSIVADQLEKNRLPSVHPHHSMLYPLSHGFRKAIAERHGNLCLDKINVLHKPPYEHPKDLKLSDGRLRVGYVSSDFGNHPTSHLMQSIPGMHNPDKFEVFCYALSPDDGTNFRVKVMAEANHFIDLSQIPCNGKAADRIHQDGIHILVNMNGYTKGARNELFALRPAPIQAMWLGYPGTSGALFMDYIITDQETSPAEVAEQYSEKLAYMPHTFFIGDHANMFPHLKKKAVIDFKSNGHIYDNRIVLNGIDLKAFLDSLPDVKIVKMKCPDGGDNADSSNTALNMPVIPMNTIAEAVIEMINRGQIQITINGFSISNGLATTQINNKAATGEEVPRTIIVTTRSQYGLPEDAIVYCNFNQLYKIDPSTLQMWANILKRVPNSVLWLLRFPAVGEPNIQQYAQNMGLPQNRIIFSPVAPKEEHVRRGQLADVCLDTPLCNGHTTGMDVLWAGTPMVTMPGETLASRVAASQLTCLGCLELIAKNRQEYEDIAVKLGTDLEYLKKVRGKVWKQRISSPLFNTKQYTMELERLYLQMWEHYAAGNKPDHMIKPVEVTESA
UniProt P0DPB6, whole entry: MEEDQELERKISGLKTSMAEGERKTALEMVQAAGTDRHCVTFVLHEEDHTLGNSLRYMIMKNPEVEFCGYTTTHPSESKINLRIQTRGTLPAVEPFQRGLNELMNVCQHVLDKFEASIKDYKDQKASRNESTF
UniProt P04181: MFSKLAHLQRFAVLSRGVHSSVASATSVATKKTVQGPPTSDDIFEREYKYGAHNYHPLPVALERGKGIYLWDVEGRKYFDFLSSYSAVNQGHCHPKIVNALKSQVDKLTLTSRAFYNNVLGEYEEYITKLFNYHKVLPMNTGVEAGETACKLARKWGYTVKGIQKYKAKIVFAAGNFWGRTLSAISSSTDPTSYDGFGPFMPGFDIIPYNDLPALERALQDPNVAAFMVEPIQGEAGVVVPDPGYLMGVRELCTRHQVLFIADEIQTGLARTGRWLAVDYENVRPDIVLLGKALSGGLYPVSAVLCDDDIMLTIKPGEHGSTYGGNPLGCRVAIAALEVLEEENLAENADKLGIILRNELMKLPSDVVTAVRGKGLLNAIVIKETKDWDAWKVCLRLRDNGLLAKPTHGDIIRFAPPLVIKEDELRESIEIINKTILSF
UniProt Q9H074: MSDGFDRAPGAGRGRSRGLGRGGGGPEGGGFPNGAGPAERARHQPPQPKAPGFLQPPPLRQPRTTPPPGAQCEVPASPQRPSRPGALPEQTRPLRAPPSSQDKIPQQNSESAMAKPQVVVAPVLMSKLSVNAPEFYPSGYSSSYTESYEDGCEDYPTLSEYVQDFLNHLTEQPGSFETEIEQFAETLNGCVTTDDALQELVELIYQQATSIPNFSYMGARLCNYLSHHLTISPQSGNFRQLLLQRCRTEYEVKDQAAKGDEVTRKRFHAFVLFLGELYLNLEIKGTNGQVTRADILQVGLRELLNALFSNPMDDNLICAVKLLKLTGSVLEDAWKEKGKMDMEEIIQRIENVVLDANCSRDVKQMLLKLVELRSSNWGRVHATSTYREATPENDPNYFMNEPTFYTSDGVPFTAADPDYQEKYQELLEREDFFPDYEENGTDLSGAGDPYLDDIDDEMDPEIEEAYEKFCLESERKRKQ

Row | Target | dose-dependent thermal stabilisation call
1 | NSUN6 (UniProt Q8TEA1) | active: 1
2 | NDE1 (UniProt Q9NXR1) | inactive: 0
3 | NENF (UniProt Q9UMX5) | inactive: 0
4 | NIN (UniProt Q8N4C6) | inactive: 0
5 | NUSAP1 (UniProt Q9BXS6) | inactive: 0
6 | NR2C1 (UniProt P13056) | active: 1
7 | NXN (UniProt Q6DKJ4) | inactive: 0
8 | NCBP2 (UniProt P52298) | inactive: 0
9 | NMD3 (UniProt Q96D46) | inactive: 0
10 | NAA16 (UniProt Q6N069) | active: 1
11 | NIPSNAP1 (UniProt Q9BPW8) | active: 1
12 | NSRP1 (UniProt Q9H0G5) | inactive: 0
13 | NOTCH1 (UniProt P46531) | inactive: 0
14 | NT5C3B (UniProt Q969T7) | inactive: 0
15 | NCAPH (UniProt Q15003) | inactive: 0
16 | P4HB (UniProt P07237) | inactive: 0
17 | NAA25 (UniProt Q14CX7) | inactive: 0
18 | NEK9 (UniProt Q8TD19) | inactive: 0

Row | Target | dose-dependent thermal stabilisation call
19 | OGT (UniProt O15294) | inactive: 0
20 | NKRF (UniProt O15226) | inactive: 0
21 | OGFR (UniProt Q9NZT2) | inactive: 0
22 | PAWR (UniProt Q96IZ0) | inactive: 0
23 | NPEPL1 (UniProt Q8NDH3) | inactive: 0
24 | NPEPPS (UniProt P55786) | inactive: 0
25 | NUDT1 (UniProt P36639) | inactive: 0
26 | NAMPT (UniProt P43490) | active: 1
27 | POLR1D (UniProt P0DPB6) | inactive: 0
28 | NCKIPSD (UniProt Q9NZQ3) | inactive: 0
29 | NKTR (UniProt P30414) | inactive: 0
30 | NAA35 (UniProt Q5VZE5) | active: 1
31 | OAT (UniProt P04181) | inactive: 0
32 | PAIP1 (UniProt Q9H074) | inactive: 0
33 | NCOA3 (UniProt Q9Y6Q9) | inactive: 0
34 | OTUD5 (UniProt Q96G74) | inactive: 0
35 | NFATC2 (UniProt Q13469) | active: 1
36 | NPM1 (UniProt P06748) | inactive: 0

Two records picked at random from those above, as already listed:
Row | Target | dose-dependent thermal stabilisation call
35 | NFATC2 (UniProt Q13469) | active: 1
3 | NENF (UniProt Q9UMX5) | inactive: 0
